Earlier results as cited in patent publication US8129123B2, “Methods for assessing atherogenesis by determining oxidized phospholipid to apolipoprotein B ratios” (The Regents of the University of California, priority 2004, dated 2012).
At least one structure is not confirmed: it was looked up by name or label, or the drawing left a doubt.

Tested on: LDL cholesterol
Details: PROVE-IT, two years' treatment, 80 mg atorvastatin versus 40 mg pravastatin; cited from earlier work

CC[C@H](C)C(=O)O[C@H]1C[C@H](O)C=C2C=C[C@H](C)[C@H](CC[C@@H](O)C[C@@H](O)CC(=O)O)[C@H]21 [pravastatin]
median LDL cholesterol level: 95 mg/dL
